Experimental findings from patent publication US20110250133A1, “GASTRIN RELEASING PEPTIDE COMPOUNDS” (priority 2003, published 2011) are described below.

Structures are written as SMILES. Structures can show the parent of a compound that is named as a salt.

For the test, the system named is BT-474 tumor-bearing nude mice.

As to `CC/C(=C(\c1ccccc1)c1ccc(OCCN(C)C)cc1)c1ccccc1` [Tamoxifen citrate], the “decrease in 177Lu-AMBA binding of tumor” value (25 mg/kg, day 14, β2-estradiol supplemented BT-474 tumor bearing mice, 1 h, vs control tumor) came out at 68%.
In the case of `CC/C(=C(\c1ccccc1)c1ccc(OCCN(C)C)cc1)c1ccccc1` [Tamoxifen], where the note is “BT-474 mice, +Tamoxifen/+ES, 1 hr, control 0.14 ± 0.06”, the “177Lu-AMBA in Blood (% ID) after Tamoxifen” value was determined as 0.13 ± 0.05 % ID. Under “BT-474 mice, +Tamoxifen/+ES, 1 hr, control 2.69 ± 0.28”, the “177Lu-AMBA in Kidneys (% ID) after Tamoxifen” value is reported as 2.30 ± 0.88 % ID. For the same compound, the “177Lu-AMBA in Gastrointestinal (% ID) after Tamoxifen” value (BT-474 mice, +Tamoxifen/+ES, 1 hr, control 11.93 ± 0.43) was found to be 10.93 ± 3.19 % ID. Under “BT-474 mice, +Tamoxifen/+ES, 1 hr, control 12.50 ± 0.67”, the “177Lu-AMBA in Pancreas (% ID) after Tamoxifen” value is 9.81 ± 2.83 % ID. Besides, the “177Lu-AMBA in Bladder/urine (% ID) after Tamoxifen” value (BT-474 mice, +Tamoxifen/+ES, 1 hr, control 42.79 ± 1.58) is reported as 54.82 ± 6.54 % ID. Moreover, the “177Lu-AMBA in Tumor (% ID/g) after Tamoxifen” value (BT-474 mice, +Tamoxifen/+ES, day 14, 1 hr after 177Lu-AMBA, control 2.18 ± 0.63, P < 0.05) was determined as 0.70 ± 0.39 % ID/g.
